Experiment [1] deals with T1, Mad1-3xFLAG, full length wild type (human) (UniProt Q9Y6D9).
T1 sequence: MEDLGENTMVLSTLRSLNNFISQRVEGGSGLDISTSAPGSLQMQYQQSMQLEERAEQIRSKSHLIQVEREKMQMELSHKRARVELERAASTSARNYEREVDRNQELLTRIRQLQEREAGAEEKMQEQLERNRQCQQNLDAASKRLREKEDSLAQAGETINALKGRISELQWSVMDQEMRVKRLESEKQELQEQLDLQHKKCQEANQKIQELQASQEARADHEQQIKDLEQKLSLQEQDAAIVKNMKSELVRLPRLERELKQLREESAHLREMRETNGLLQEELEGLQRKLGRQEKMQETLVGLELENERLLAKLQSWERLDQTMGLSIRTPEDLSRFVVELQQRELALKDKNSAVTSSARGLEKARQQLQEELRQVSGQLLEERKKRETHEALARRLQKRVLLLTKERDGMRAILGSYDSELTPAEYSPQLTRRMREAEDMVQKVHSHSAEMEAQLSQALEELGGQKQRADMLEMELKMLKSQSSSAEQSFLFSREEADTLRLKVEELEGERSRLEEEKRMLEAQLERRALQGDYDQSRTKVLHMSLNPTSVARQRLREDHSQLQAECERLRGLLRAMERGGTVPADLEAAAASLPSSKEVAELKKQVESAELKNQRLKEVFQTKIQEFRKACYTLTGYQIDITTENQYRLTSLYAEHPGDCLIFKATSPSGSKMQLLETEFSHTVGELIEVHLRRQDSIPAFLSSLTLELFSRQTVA
Briefly: co-IP; anti-FLAG M2 affinity gel, 5 h at 4 °C; lysates of transiently transfected HEK-293T cells in RIPA buffer (50 mM Tris–HCl pH 8.0, 1 mM EDTA, 150 mM NaCl, 20% glycerol, 1% NP-40, 0.5% sodium deoxycholate); FLAG-tagged Mad1 constructs as bait, HA-PML constructs detected.

Chains of the proteins cited; added tags and fusions are not shown. Lines headed by an entry give the natural chain unless they say otherwise; changes in a name come on top. A line that says so, or that is headed by a name, gives the form on record, which may keep a tag or linker. Residues count along the entry.
UniProt Q00987: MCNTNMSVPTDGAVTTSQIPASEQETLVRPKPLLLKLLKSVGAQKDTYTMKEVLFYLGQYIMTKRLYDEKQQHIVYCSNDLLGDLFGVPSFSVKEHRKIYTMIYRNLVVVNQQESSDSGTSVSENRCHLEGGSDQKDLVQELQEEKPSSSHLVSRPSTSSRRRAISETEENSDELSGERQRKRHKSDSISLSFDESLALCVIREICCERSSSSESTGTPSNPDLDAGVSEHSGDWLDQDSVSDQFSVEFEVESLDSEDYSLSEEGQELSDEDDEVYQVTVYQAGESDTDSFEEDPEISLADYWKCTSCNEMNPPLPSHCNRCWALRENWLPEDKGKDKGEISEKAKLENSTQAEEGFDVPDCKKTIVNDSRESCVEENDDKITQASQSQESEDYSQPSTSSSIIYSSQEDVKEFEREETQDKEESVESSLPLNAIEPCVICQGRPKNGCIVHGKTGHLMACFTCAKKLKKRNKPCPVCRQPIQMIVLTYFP
HA-tagged PML aa 1–229 (P29590, residues 1-229): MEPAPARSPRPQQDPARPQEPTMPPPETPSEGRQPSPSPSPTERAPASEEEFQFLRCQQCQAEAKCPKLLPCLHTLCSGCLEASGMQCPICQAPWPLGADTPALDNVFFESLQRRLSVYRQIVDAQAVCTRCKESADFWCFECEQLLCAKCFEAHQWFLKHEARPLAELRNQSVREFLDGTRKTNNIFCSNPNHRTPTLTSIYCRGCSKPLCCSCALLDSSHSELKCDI
HA-PML (PML-IV), full length (P29590-5, form named): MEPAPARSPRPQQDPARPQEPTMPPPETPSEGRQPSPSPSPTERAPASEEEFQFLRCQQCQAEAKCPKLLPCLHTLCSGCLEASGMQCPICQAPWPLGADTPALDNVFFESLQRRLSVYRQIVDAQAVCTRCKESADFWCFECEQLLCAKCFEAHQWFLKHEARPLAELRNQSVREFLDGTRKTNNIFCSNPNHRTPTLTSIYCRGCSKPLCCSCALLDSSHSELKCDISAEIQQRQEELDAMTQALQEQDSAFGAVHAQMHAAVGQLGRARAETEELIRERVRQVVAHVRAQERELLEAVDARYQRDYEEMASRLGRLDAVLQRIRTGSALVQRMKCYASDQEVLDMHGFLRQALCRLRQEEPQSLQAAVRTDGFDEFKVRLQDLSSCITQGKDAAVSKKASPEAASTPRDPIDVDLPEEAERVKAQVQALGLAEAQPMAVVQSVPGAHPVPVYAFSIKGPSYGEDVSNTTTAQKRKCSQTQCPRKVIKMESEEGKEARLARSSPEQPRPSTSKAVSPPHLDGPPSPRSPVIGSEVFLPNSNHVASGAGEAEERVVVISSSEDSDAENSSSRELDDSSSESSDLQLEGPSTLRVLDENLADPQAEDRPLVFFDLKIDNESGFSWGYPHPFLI

Experiment [2] has as its target 3xFLAG-MDM2 (UniProt Q00987). Briefly: co-IP; 293T cells co-transfected with tagged PML, tagged MDM2 and increasing amounts of FL Mad1 or Mad1ΔCTD; extracts 48 h after transfection immunoprecipitated with beads coupled to anti-FLAG antibodies.
Experiment [3] concerns the target T2, Mad1 aa 180–718, FLAG-tagged fragment (human) (UniProt Q9Y6D9).
T2 sequence: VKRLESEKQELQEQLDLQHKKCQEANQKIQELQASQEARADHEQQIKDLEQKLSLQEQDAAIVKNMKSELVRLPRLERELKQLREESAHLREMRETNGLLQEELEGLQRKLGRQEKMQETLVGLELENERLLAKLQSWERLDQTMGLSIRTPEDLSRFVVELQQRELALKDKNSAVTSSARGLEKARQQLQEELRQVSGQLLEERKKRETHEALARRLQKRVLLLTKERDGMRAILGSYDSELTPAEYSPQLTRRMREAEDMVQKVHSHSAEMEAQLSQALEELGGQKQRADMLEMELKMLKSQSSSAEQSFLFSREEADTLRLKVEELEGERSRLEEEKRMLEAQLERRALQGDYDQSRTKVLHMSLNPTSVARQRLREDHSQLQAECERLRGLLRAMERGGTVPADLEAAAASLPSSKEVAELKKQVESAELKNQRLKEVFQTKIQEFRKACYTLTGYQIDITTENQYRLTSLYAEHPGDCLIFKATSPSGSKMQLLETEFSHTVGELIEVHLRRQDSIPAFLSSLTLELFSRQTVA
As to the kind of experiment: co-IP; anti-FLAG M2 affinity gel, 5 h at 4 °C; lysates of transiently transfected HEK-293T cells in RIPA buffer (50 mM Tris–HCl pH 8.0, 1 mM EDTA, 150 mM NaCl, 20% glycerol, 1% NP-40, 0.5% sodium deoxycholate); FLAG-tagged Mad1 constructs as bait, HA-PML constructs detected.

These are yes or no findings as the source states them, for the method shown. In cells and extracts the contact can be indirect. Some binding calls cover weakened binding; strength is not graded here. For some of these results: Tags and fused reporters may be left off the sequences shown.

As for “HA-tagged PML aa 1–229 (from UniProt P29590-5 1-229) (domain or fragment)”, the binding entry in experiment [1] is listed as “binds”.
For the substance “HA-PML (PML-IV), full length (from UniProt P29590-5 1-633)”, the binding entry in experiment [2], in experiment [3] and in experiment [1] was “binds” in each case.

These data come from paper PMC6449396.
